Laboratory results as given in paper PMC8967906.
No constants are given. Whether binding was seen depends on the method and setting. In cells and extracts the contact can be indirect. Here binding means that the protein was enriched with, or labelled near, the bait; the list need not be complete.

Target: T1, TRIM46 (human (endogenous in H358)) (UniProt Q7Z4K8)
T1 sequence: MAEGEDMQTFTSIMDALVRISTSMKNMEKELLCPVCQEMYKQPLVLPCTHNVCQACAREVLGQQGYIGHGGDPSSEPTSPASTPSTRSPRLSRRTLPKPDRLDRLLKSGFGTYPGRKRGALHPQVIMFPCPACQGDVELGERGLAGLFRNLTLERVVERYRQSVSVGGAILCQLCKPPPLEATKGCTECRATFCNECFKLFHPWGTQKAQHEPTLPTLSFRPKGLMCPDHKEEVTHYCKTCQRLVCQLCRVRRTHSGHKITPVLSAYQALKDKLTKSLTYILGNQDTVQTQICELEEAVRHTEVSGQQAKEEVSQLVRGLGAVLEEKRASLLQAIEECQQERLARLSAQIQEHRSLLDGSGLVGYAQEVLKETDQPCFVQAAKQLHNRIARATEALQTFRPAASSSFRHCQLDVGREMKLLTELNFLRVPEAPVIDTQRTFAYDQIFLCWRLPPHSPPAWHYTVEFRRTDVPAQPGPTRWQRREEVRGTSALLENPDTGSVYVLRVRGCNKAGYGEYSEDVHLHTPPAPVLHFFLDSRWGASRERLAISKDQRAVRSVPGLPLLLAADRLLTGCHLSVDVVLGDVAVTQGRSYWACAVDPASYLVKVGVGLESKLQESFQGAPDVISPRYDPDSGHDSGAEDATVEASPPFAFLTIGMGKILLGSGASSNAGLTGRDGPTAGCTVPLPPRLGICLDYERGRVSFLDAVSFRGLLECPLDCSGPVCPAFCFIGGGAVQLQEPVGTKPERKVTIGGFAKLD
Assay: affinity purification with mass spectrometry; IP and mass spectrometry to analyze TRIM46 binding proteins; cells and conditions not told in the text shown

binding: binds
B1: pleckstrin homology domain leucine-rich repeat protein phosphatase 2 (protein, UniProt Q6ZVD8 1-1323)
chain: MKRNGSRNCLNRRSRFGSRERDWLREDVKRGCVYLYGADTTTATTTTTTSSSSSSSSSSSDLHLVLCTVETPASEICAGEGRESLYLQLHGDLVRRLEPTERPLQIVYDYLSRLGFDDPVRIQEEATNPDLGCMIRFYGEKPCHMDRLDRILLSGIYNVRKGKTQLHKWAERLVVLCGTCLIVSSVKDCQTGKMHILPLVGGKIEEVKRRQYSLAFSSAGAQAQTYHVSFETLAEYQRWQRQASKVVSQRISTVDLSCYSLEEVPEHLFYSQDITYLNLRHNFMQLERPGGLDTLYKFSQLKGLNLSHNKLGLFPILLCEISTLTELNLSCNGFHDLPSQIGNLLNLQTLCLDGNFLTTLPEELGNLQQLSSLGISFNNFSQIPEVYEKLTMLDRVVMAGNCLEVLNLGVLNRMNHIKHVDLRMNHLKTMVIENLEGNKHITHVDLRDNRLTDLDLSSLCSLEQLHCGRNQLRELTLSGFSLRTLYASSNRLTAVNVYPVPSLLTFLDLSRNLLECVPDWACEAKKIEVLDVSYNLLTEVPVRILSSLSLRKLMLGHNHVQNLPTLVEHIPLEVLDLQHNALTRLPDTLFSKALNLRYLNASANSLESLPSACTGEESLSMLQLLYLTNNLLTDQCIPVLVGHLHLRILHLANNQLQTFPASKLNKLEQLEELNLSGNKLKTIPTTIANCKRLHTLVAHSNNISIFPEILQLPQIQFVDLSCNDLTEILIPEALPATLQDLDLTGNTNLVLEHKTLDIFSHITTLKIDQKPLPTTDSTVTSTFWSHGLAEMAGQRNKLCVSALAMDSFAEGVGAVYGMFDGDRNEELPRLLQCTMADVLLEEVQQSTNDTVFMANTFLVSHRKLGMAGQKLGSSALLCYIRPDTADPASSFSLTVANVGTCQAVLCRGGKPVPLSKVFSLEQDPEEAQRVKDQKAIITEDNKVNGVTCCTRMLGCTYLYPWILPKPHISSTPLTIQDELLILGNKALWEHLSYTEAVNAVRHVQDPLAAAKKLCTLAQSYGCQDNVGAMVVYLNIGEEGCTCEMNGLTLPGPVGFASTTTIKDAPKPATPSSSSGIASEFSSEMSTSEVSSEVGSTASDEHNAGGLDTALLPRPERRCSLHPTPTSGLFQRQPSSATFSSNQSDNGLDSDDDQPVEGVITNGSKVEVEVDIHCCRGRDLENSPPLIESSPTLCSEEHARGSCFGIRRQNSVNSGMLLPMSKDRMELQKSPSTSCLYGKKLSNGSIVPLEDSLNLIEVATEVPKRKTGYFAAPTQMEPEDQFVVPHDLEEEVKEQMKQHQDSRLEPEPHEEDRTEPPEEFDTAL
